Measured values reported in patent publication US10617656B2, “Methods of increasing the cytotoxicity of chemotherapeutic agents with multisubstrate inhibitors of histone, protein-Lys, polyamine acetylation, and polyamine metabolism” (Vanderbilt University, priority 2010, dated 2020).
“Also recorded” adds a separate entry of the source. Like-named read-outs stand apart in the source and are kept apart here. For part of these data: At least one structure is not confirmed: it was looked up by name or label, or the drawing left a doubt. Some entries share one result that the patent states for a list of compounds.

Amino acid sequences for entries named in this document (tags omitted).
UniProt P21673, whole entry, species assumed: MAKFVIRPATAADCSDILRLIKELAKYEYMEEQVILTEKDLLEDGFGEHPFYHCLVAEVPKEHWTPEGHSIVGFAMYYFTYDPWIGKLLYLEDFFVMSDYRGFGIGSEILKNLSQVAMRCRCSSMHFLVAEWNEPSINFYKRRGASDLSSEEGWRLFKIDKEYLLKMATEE

Legend:
[1] = system: histone H3 lysine 9 acetylation in H358 cells; experiment: Western analysis of histone H3 acetylation/methylation in H358 cells; type: cell-based; settings: 50 μM
Description: (§1) (A) Structures of 1a, and the acetylated side chain of a lysine residue within the polypeptide chain of a protein targeted by the acetylating enzyme (R1 and R2 are the main chain elements on both sides of the lysyl residue). (B) [^3H]-thymidine incorporation into DNA of H358 cells pulsed for 6 hrs at three different time points after the addition of increasing concentrations of 1a, i.e., at 6-12 hrs (12 hr curve), at 18-24 hours (24 hr curve), or at 42-48 hrs (48 hr curve). Incorporation is represented as a percentage relative to control (untreated) cells. (C) Cell cycle analysis of propidium iodide-stained cells harvested at various times after addition of 50 μM 1a. % of cells in G1, S, and G2 represents the average of two independent profiles. (D) Western analysis of histone H3 lysine 9 acetylation, histone H3 lysine 56 acetylation, histone H3 lysine 9 methylation, and total histone H3, before “c” or at the indicated times after addition of 50 μM 1a. Each lane represents 60 μg cellular protein.
Each lane represents 175 μg cell lysate protein.
One 6 cm culture dish of H358 cells per treatment was used. Cells were treated with 50 μM spm-2, spm-3, or spd-3a for 12 hours. Histones were extracted from cells in 0.2M H2SO4 (as described in Furuta, T., et al (2003) J. Biol. Chem. 278: 20303-20312), followed by SDS-PAGE and Western blotting. Blots were probed with anti-acetyl histone H3-lysine 9 (Upstate Biotechnology, Inc.)
Cells were lysed by adding 1 mL of 0.2 M H2SO4. Histones were recovered as described in reference. SDS-PAGE/Western analysis was carried out as previously described using rabbit monoclonal antibody to total histone H3, rabbit polyclonal anti-trimethyl histone H3 (lysine 9), and anti-acetyl histone H3 (lysine 9). All antibodies were purchased from Upstate Biotechnology Inc. (Lake Placid, N.Y.).
One 10-cm plate of H358 lung cancer cells (about 2×10^6 cells), grown in DMEM+10% Fetal bovine serum as described in reference, were treated for 24 hours with 50 μM 1a inhibitor. Cells lysates were prepared as we have previously described (Lee C, et al., 2005, Cancer Res 65:9834-9842). Treated cells and untreated (control) cells were harvested by lysing in buffer containing 10 mM Hepes pH 7.5, 100 mM NaCl, 300 mM sucrose, 3 mM MgCl2, 1 mM EDTA, 1 mM DTT, 0.5% Triton X-100, 1 mM PMSF, protease inhibitor pellet (Roche) and analyzed on 10% SDS-PAGE gels, followed by Western immunoblot analysis of total histone H3, methylated histone H3 (methylated on lysine 9), and acetylated histone H3 (acetylated on lysine 9). […] Histone H3 methylation was not affected.

H358 cells [2] = experiment: Cell cycle analysis of propidium iodide-stained cells; type: cell-based; settings: 50 μM; maximal at 12 hours, normal by 24 hours
H358 lung cancer cells [3] = experiment: [3H]-thymidine incorporation (DNA synthesis) assay in H358 cells; type: cell-based
Description: as §1
(§2) Control cells were left untreated. […] Control cells were left untreated.
Cells were either labeled immediately before treatment (starting DNA synthesis rate), or subjected to the indicated treatments and then pulsed on successive days until day 4. DNA synthesis is represented as the percent of starting DNA synthesis rate. Viability was determined for each treatment condition 24 hours post-start of treatment by the trypan blue exclusion assay, with percentages of viable cells indicated to the right of the graph.
H358 cells (2,000/well) in 96-well plates were treated with 1, 10 or 50 μM of spd-1a, spd-2a, spd-3a, spm3, or spm2 for 12 hours. Triplicate wells of cells were pulsed 6 hours with 0.5 μCi [^3H]-thymidine (NEN, Boston Mass.) post-start of drug treatment, and harvested onto filter paper using a Brandel Harvester and subjected to scintillation counting. Untreated cells were pulsed from 0-6 hrs to establish the initial rate of incorporation.
Cells were plated in 96-well plates (2000 cells per well to insure conditions for exponential growth for untreated cells over the time course of the experiment) and exposed to the following treatments: 1a (50 μM); camptothecin (Sigma, St Louis, Mo. 5 nM, 18 hours); cisplatin (Platinol, obtained through local pharmacies, 2 μM, 1 hour 15 minutes), 5-fluorouracil (5FU, Adrucil™, obtained through local pharmacies, 2 μM, 1 hour 15 minutes), Taxotere (provided by the late Dr. Pierre Potier, 5 nM, 18 hours). UVC treatment (40 J/m^2) using a Stratalinker™, Stratagene, La Jolla, Calif.) was carried using medium lacking phenol red. […]

[4] = molecular target: Spermine spermidine acetyltransferase (SSAT) (Homo sapiens, UniProt P21673); settings: cited from earlier work
γ-H2A.X in H358 cells = experiment: γ-H2A.X Western / double strand break repair assay; type: cell-based
Description: Also shown are controls for no treatment (“c” minus 1a) or treatment with 1a only (“c” plus 1a). Each lane represents 60 μg protein. […] Each lane represents 60 μg protein.
To measure DSB repair, cells were incubated for 1 hour with 10 μM camptothecin to induce DSBs, followed by incubation in the presence or absence of 50 μM 1a. At fixed times, histones were prepared by extraction in 0.2M H2SO4 as described previously and 50 μg extract was analyzed by 12% SDS-PAGE followed Western analysis as described previously, using rabbit polyclonal anti-γ-H2A.X [phosphor ser 139] (Novus Biologicals, Littleton, Colo.) or anti-H3 (Upstate Biotechnology, Inc, Lake Placid, N.Y.). Band intensities were quantitated digitally. To study acetylation of γ-H2A.X, we carried out co-immunoprecipitation analysis using 50 μg extract protein in immunoprecipitation buffer (10 mM sodium phosphate pH 7, 0.15 M NaCl, 0.1% SDS, 1% NP40, 1% sodium deoxycholate, aprotinin, 1 mM PMSF, complete protease inhibitors (Roche) using immobilized anti-acetyl-lysine (Millipore, Temecula, Calif.) in the immunoprecipitation step. The immunoprecipitated material was then analyzed as for Western analysis using anti γ-H2A.X.

H358 lung cancer cells [5] = experiment: Inhibition of cellular uptake of [3H]spermidine; type: cell-based; settings: 2 hr incubation, at high enough concentration
MCF7 breast cancer cells = settings: for 3-day cell viability, single agent: single exposure, inhibitor alone
Description: Viability was measured 3 days after the start of treatment and is expressed as a percentage of control (untreated) cell viability.
Each point is average of triplicates. […]
The present inventors carried out 96-well viability assays as we have previously described (Saadatmandi et al, Cancer Gene Therapy (2002) 9:830-9), in which MCF7 breast cancer cells were plated at 3000 cells per well. After overnight attachment, triplicate wells were treated with increasing doses of inhibitor 1a. Control wells were left untreated. After 3 days, cell viability was measured by the MTS assay, which measures the bioconversion of an uncolored substrate to a colored formazan derivative, and is proportional to cell number.

[6] = system: GT41F human skin fibroblast cells; experiment: [3H]-thymidine incorporation in normal fibroblasts; type: cell-based
Excerpt: Cells were either labeled immediately before treatment (starting DNA synthesis rate), or subjected to the indicated treatments and then pulsed on successive days until day 4. DNA synthesis is represented as the percent of starting DNA synthesis rate.
The present inventors used a 96-well viability assays as described in Saadatmandi et al (Cancer Gene Therapy (2002) 9:930-9) to examine the effect of the spermidine-CoA inhibitor disclosed previously on DNA synthesis in normal GT41F human skin fibroblast cells, as well as its combined effect with camptothecin. GT41F cells were plated in 96-well plates at 3000 cells per well. […] Following the 6-hour labeling, cells were harvested and incorporation of [^3H]-thymidine was determined by scintillation counting.

[7] = system: endogenous HATs associated with solubilized chromatin; settings: Bandyopadhyay et al, 2009; cited from earlier work
H358 lung cancer cells [8] = type: cell-based
Description: as §2
Cells were given fresh inhibitor on the first, second, and third days of treatment and viability was measured on the 4th day (i.e. 3 days post start of treatment). […]
(A) Structure of Spd-3a. (B) Western analysis of histone H3K9-acetylation and total histone H3, measured in control, untreated H358 lung cancer cells “C” or in H358 cells incubated 12 hours in the presence of 50 μM Spd-2a or Spd-3a. Each lane represents 60 μg cellular protein. (C) [3H]-thymidine incorporation (counts per minute) into DNA of H358 cells during a 6 hour pulse beginning at 42 hours post-start of treatment. Treatments were as follows (bars 1-6 left to right): (1) control: no treatment; (2) CPT alone: 5 nM 18 hours; (3) 3a alone: 50 μM; (4-6) 3a+CPT: CPT (5 nm, 18 hours)+3a at indicated dose. After 18 hours, CPT was removed and medium was replaced with fresh medium containing Spd-3a at the indicated dose. Each bar represents the average of triplicates. […]
Cells were plated in 96-well plates at 2000 cells per well and treated with the indicated doses of spd-3a. Cell viability was measured by the MTS assay 3 days later.
DLD-1 cells or H358 cells were plated in 96-well plates at 2000 cells per well and treated with the indicated doses of (A) spm-3 or (B) spm-2. (C) Cell viability was measured by the MTS assay 3 days later. […]

H358 cells [9] = experiment: Trypan blue exclusion viability assay; type: cell-based
[10] = increasing concentrations of 1a alone

CC(C)(COP(=O)(O)OP(=O)(O)OC[C@H]1O[C@@H](n2cnc3c(N)ncnc32)[C@H](O)[C@@H]1OP(=O)(O)O)[C@@H](O)C(=O)NCCC(=O)NCCSCC(=O)NCCCNCCCCN [1a, spermidine[N1]-CoA]
effect on histone H3 lysine 9 methylation [1]: not affected | time by which acetylation levels are restored [1]: ≤ 24 h | time of greatest inhibition of histone acetylation post start of treatment [1]: 12 h | time after treatment within which effects on histone acetylation occur ([1]; FIG. 2D): ≤ 1 h | effect on cell cycle distribution (H358 cells [2]): depletion of G2-phase cells | sensitization to Taxotere (H358 lung cancer cells [3]; 50 μM 1a + Taxotere 5 nM): not to Taxotere | sensitization to UVC irradiation (H358 lung cancer cells [3]; 50 μM 1a + UVC 40 J/m^2): sensitized | sensitization to cisplatin (CDDP) (H358 lung cancer cells [3]; 50 μM 1a + cisplatin 2 μM): sensitized | effect of 1a alone on DNA synthesis (H358 lung cancer cells [3]; 50 μM alone): transient inhibition of DNA synthesis; also recorded: transient arrest of DNA synthesis | inhibition of SSAT [4]: potent inhibitor | γ-H2A.X levels when UVC, 5FU, cisplatin or camptothecin are combined with 1a (γ-H2A.X in H358 cells; 50 μM 1a, 18 hours): increase dramatically | γ-H2A.X level, single agent (γ-H2A.X in H358 cells; 18 hours post-start, low doses as in FIG. 3): undetectable | γ-H2A.X levels after 10 μM camptothecin (1 hour) (γ-H2A.X in H358 cells; followed by 50 μM 1a): persist | competition with spermidine for uptake (H358 lung cancer cells [5]): block most cellular uptake of spermidine | 2-day cumulative cell viability relative to untreated cells (MCF7 breast cancer cells; [10]): little effect | 3-day cell viability, single agent (MCF7 breast cancer cells): minimal effects | 3-day cell viability, single agent (MCF7 breast cancer cells; listed as spd-1a): little effect | effect on incorporation of [3H]-thymidine, combination ([6]; 50 μM 1a + 5 nM camptothecin (18 hours)): virtually no effect | effect on incorporation of [3H]-thymidine, single agent ([6]; 50 μM 1a alone or 5 nM camptothecin alone): virtually no effect | inhibitory activity against endogenous HAT activity, isomers compared [7]: comparable inhibitory activity | 2-day cumulative cell viability relative to untreated cells (H358 lung cancer cells [8]; [10]): little effect | effect on cells as a single agent (H358 lung cancer cells [8]; spd-1a alone): little effect

CC[C@@]1(O)C(=O)OCc2c1cc1n(c2=O)Cc2cc3ccccc3nc2-1 [camptothecin, reference compound]
cell viability, single agent (H358 cells [9]; 18 hours after start, 50 μM 1a or 5 nM camptothecin alone): ≥ 96% | cell viability, single agent (H358 cells [9]; 24 hours after start (Example 1)): ≥ 96%
